For at least one compound, name, drawing or mass did not settle the structure.
Test system: EBV-positive B lymphoma cell line P3HR1
Assay: Drug sensitivity assay: HDAC inhibitor plus ganciclovir, viable cell count by trypan blue
Format: cell-based, human
Conditions: combined with ganciclovir (GCV 50 μM); 3 days HDACi + GCV, then 3 days GCV alone
Method: To determine tumor cytotoxic activity of the combination of HDACi and GCV, EBV+ lymphoma cells were exposed to a range of concentrations of sodium butyrate or chidamide […] for 3 days and then to GCV alone for another 3 days (FIG. 1C). Efficacy of either sodium butyrate or chidamide in the combination treatment approach was then determined by enumerating living cells. A general experimental protocol is described below.
The EBV-positive B lymphoma cell line P3HR1 was used in the study. The P3HR1 cell line was originally derived from Burkitt's lymphoma patient. EBV maintains a latent state of replication in this cell line. These cells were maintained in RPMI 1640 with 10% fetal bovine serum containing 100 U penicillin per ml and 100 μg streptomycin per ml.
To test the sensitivity of EBV-positive lymphoma cells towards chidamide, P3HR1 cells were treated with chidamide in the presence of one anti-viral drug. At the end of the assay, the efficacy of chidamide was assessed by measuring the inhibition of cell growth compared to untreated cells.
Healthy, actively-growing P3HR1 cells were harvested and resuspended in fresh growth media. Cells were seeded in wells. […] On day 6, cell morphology was observed under a microscope and viable cell counts in each individual well was determined by the trypan blue dye exclusion method using an automated cell counter (Countess, Invitrogen).

Compound: Nc1cc(F)ccc1NC(=O)c1ccc(CNC(=O)/C=C/c2cccnc2)cc1 [chidamide]
- activity with ganciclovir in killing EBV+ lymphoma cells: synergistic activity
